The text below walks through data of paper PMC12408324.

Sequences of proteins named here, by UniProt entry; tags and fusion partners are left off.
UniProt P19474: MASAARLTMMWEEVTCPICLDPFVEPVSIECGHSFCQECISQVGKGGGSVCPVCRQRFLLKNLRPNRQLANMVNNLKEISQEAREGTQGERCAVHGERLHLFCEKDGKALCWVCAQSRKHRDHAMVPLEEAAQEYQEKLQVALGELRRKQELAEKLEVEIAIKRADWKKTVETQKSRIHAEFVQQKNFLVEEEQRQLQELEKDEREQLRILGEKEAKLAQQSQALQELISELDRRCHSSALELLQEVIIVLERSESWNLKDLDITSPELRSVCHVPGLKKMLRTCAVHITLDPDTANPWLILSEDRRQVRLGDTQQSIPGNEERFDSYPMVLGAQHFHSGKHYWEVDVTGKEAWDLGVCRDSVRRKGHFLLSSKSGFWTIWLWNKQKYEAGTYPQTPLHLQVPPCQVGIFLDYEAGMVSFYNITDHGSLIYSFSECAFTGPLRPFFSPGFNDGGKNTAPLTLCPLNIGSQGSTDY

This assay deals with T1, Flag-tagged ID1 (human) (UniProt P41134).
T1 sequence: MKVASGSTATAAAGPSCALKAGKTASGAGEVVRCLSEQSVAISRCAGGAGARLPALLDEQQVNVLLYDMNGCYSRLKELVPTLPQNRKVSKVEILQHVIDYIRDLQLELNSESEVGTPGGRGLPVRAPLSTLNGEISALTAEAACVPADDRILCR
In words: affinity purification with mass spectrometry; immunoprecipitate from ID1-overexpressing cells under normoxic conditions, trypsin digestion, LC-MS/MS (Q-Exactive), search against SwissProt.

No constants are given. Whether binding was seen depends on the method and setting. In cells and extracts the contact can be indirect. Here binding means that the protein was enriched with, or labelled near, the bait; the list need not be complete. Where a sequence is shown, tags or fusion partners need not be part of it.

Turning to “TRIM21 (Tripartite motif-containing protein 21) (from UniProt P19474 1-475)”, the binding result is “binds”.
